# Test results taken from publication PMC5996148.
# Several values for one entry are separate records, joined by “and”; a condition that tells them apart may be missing. Equal entries are not always repeated. This is one part of the list.
# Columns and labels:
# Assay in all cases: protein microarray (ProtoArray v5.0), streptavidin-Alexa Fluor 647
# Conditions in all cases: 3'-biotin; 20 mM Tris (pH 7.5), 5 mM MgCl2, 100 mM KCl, 0.1% Tween-20, A/T-rich and random oligonucleotide blockers; temperature not stated; high values mean tight binding
# [1] = tested on: HPCA (human)
# [2] = tested on: HPCAL1 (human)
# [3] = tested on: HPCAL4 (human)
# [4] = tested on: HPGD (human)
# [5] = tested on: HPRT1 (human)
# [6] = tested on: HPS4 (human)
# [7] = tested on: HRASLS (human)
# [8] = tested on: HS2ST1 (human)
# [9] = tested on: HS3ST1 (human)
# [10] = tested on: HSBP1 (human)
sequence,measurement,setting,value
GGGAGGCTGAGGCAGG [G4-1 biotinylated (PQS2)],binding signal,[1],-0.328 z-score
same,binding signal,[2],-0.357 z-score
same,binding signal,[3],-0.304 z-score
same,binding signal,[4],-0.343 z-score
same,binding signal,[5],-0.34 z-score
same,binding signal,[6],-0.262 z-score
same,binding signal,[7],-0.273 z-score
same,binding signal,[8],-0.334 z-score
same,binding signal,[9],-0.347 z-score and -0.342 z-score
same,binding signal,[10],-0.347 z-score

# Two entries from above, with tabs:
sequence	measurement	setting	value
GGGAGGCTGAGGCAGG [G4-1 biotinylated (PQS2)]	binding signal	[7]	-0.273 z-score
same	binding signal	[8]	-0.334 z-score
